From patent US10039761B2, “Co-crystals and pharmaceutical compositions comprising the same” (Vertex Pharmaceuticals Incorporated, priority 2013, dated 2018)
At least one structure is not confirmed: it was looked up by name or label, or the drawing left a doubt.

Key:
[1] = tested on: ST-02-0004 primary GEJ tumor xenograft; test: ST-02-0004 primary GEJ tumor xenograft efficacy with focused IR; type: in vivo; details: paclitaxel/carboplatin and 50 mg/kg Compound (2), no IR
Protocol: The in vivo activities of Compounds (1) and (2) were compared in combination with focused beam IR in a primary gastric cancer subcutaneous xenograft model. In the ST 02 0004 model, focused IR was administered on three consecutive days alone and in combination with Compound (1) or Compound (2).
The anti-tumor activity of Compound (2) in combination with focused-beam IR and the standard of care agents, paclitaxel and carboplatin, was also evaluated in the ST 02 0004 model. Treatment with paclitaxel, carboplatin, and IR was administered once per week for three weeks alone or in combination with Compound (2).
In Tables 14 and 15, for example, PO bid (0, 4 h) indicates Compound (2) is administered twice (bid) at time point 0 and then 4 hours after; IR (0.25 h) qdx3 indicates radiation is administered 15 minutes (0.25 h) after the administration of Compound (2) (0 h), and once a day for 3 days (qdx3); q7dx2 indicates once a week for two weeks; qod indicates every other day twice (e.g., Day 1 and Day 3); and paclitaxel q7dx3 (−0.25 h), carboplatin q7dx3 (−0.25 h) indicates administration of paclitaxel and carboplatin 15 minutes prior to the administration of Compound (2), followed by additional administration of Compound (2) after 4 hours after the first administration of Compound (2).

[2] = tested on: panel of 60 cancer cell lines; test: Double combinations in 60 cancer cell line panel (ATPLite, Bliss); type: cell-based; details: for Bliss analysis, combination effect: 144 hours
Protocol: The cell-based experiments and assays were performed with either molecule but not always with both. Compounds (1) and (2) were generally very similar in those assays and experiments. Analysis of the combination experiments was performed using two methods: the Bliss Additivity model and the Mixtures Blend method to determine the degree of synergy, additivity, or antagonism. In the Bliss method, a matrix of Bliss scores was generated for each cell line and treatment, and a sum of the Bliss values over the range of combination concentrations tested was calculated. […] Larger average Bliss values indicate greater confidence in reporting synergy, and smaller scores indicate greater confidence in reporting antagonism. In the Mixtures Blend method combinants were added in a range of optimal ratios using design of experiment (DOE) software (DX-8 from STAT-EASE); the cells were irradiated with 2 Gy as required. Synergy was determined using statistical analysis of the data (ANOVA) to indicate linear (additivity) or statistically significant (p<0.1) non-linear (antagonism or synergy) mixes of the combinants. Compound (2) was tested against a panel of 60 cancer cell lines (see Table 16) alone and in combination with a panel of cytotoxic and non-cytotoxic SOC agents. The 60 cancer cell lines represent lines derived from breast cancer, prostate cancer, lung cancer, acute myeloid leukemia (AML), myeloma and other cancers. Cells were removed from liquid nitrogen storage, thawed and expanded in appropriate growth media. Once expanded, cells were seeded in 384-well tissue culture treated plates at 500 cells per well. […] At the end of either 0 hours or 144 hours, cell status was analyzed using ATPLite (Perkin Elmer) to assess the biological response of cells to drug combinations.

[3] = tested on: triple-negative breast cancer cell lines; test: Doxorubicin/epirubicin combination, all breast cancer lines tested; type: cell-based
Protocol: (§1) The cell-based experiments and assays were performed with either molecule but not always with both. Compounds (1) and (2) were generally very similar in those assays and experiments. Analysis of the combination experiments was performed using two methods: the Bliss Additivity model and the Mixtures Blend method to determine the degree of synergy, additivity, or antagonism. In the Bliss method, a matrix of Bliss scores was generated for each cell line and treatment, and a sum of the Bliss values over the range of combination concentrations tested was calculated. […] Larger average Bliss values indicate greater confidence in reporting synergy, and smaller scores indicate greater confidence in reporting antagonism. In the Mixtures Blend method combinants were added in a range of optimal ratios using design of experiment (DOE) software (DX-8 from STAT-EASE); the cells were irradiated with 2 Gy as required. Synergy was determined using statistical analysis of the data (ANOVA) to indicate linear (additivity) or statistically significant (p<0.1) non-linear (antagonism or synergy) mixes of the combinants.

[4] = tested on: ESO26 (GEJ) cancer cell line; test: Combination with genotoxic agents, viability (Mixtures analysis); type: cell-based
Protocol: as §1

[5] = Bulk and tapped density of material; type: physicochemical
[6] = tested on: smaller set of cancer cell lines; test: SOC combinations, cell viability, smaller set of cancer cell lines; type: cell-based; details: compared to Compound (1)

For [2H]c1nc(C)nc([2H])c1-c1cc(NC[C@@H](C)c2cccc3c(C(=O)NC)ccnc23)ncn1 [Compound (2), (S)-N-methyl-8-(1-((2′-methyl-4′,6′-dideutero-[4,5′-bipyrimidin]-6-yl)amino)propan-2-yl)quinoline-4-carboxamide], the “impact on tumor growth” value [1] was “did not impact tumor growth”, the “Bliss analysis, combination effect” value ([2]; in combination with BMN-673) was “Some synergy” and the “Bliss analysis, combination effect” value ([2]; in combination with carboplatin) was “Some synergy”. For the same compound, the “activity by cancer cell line type” value ([2]; in combination with doxorubicin) was “particularly active against non-small cell lung cancer lines”, the “Bliss analysis, combination effect” value ([2]; in combination with erlotinib) was “Additivity” and the “activity by cancer cell line type” value ([2]; in combination with etoposide) was “particularly active against non-small cell lung cancer lines”. The combination effect ([3]; with doxorubicin or epirubicin, all triple-negative lines, independent of BRCA status or plating density) was “strongly synergistic”, the “Bliss analysis, combination effect” value ([3]; with doxorubicin, all five cell lines, both Compound (2) concentrations tested) was “strongly synergistic” and the “No Radiation” value ([4]; with Carboplatin, Paclitaxel) was “Additive overall”. For the same compound, the “Plus Radiation” value ([4]; with Carboplatin, Paclitaxel) was “Significant reduction in cell”, the “No Radiation” value ([4]; with Cisplatin, 5-FU) was “Synergy; Comp. 2” and the “Plus Radiation” value ([4]; with Cisplatin, 5-FU) was “Significant reduction in cell”. For the same compound, the “No Radiation” value ([4]; with Etoposide) was “Significant synergy”, the “Bulk Density” value [5] was 0.33 g/cc and the “Tapped Density” value [5] was 0.47 g/cc. The “combination outcomes on cell viability with SOC combinants” value [6] was “demonstrated the same combination outcomes on cell viability”.
